Measurements reported in PubChem BioAssay AID743454 (Peter MacCallum Cancer Centre, 2014)

Purpose: 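Search for knock-downs that restore vorinostat killing in resistant colon cancer cells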 (primary screen)
System: human HCT116-VR colon cancer cells, selected for vorinostat resistance
Reagents: siRNA pool against human genes, 40 nM siRNA pool
Time to read-out: vorinostat for 24 h, read-out about 72 h after transfection
Challenge: vorinostat at 2.5 µM final
Measured: 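Cell viability by CellTiter-Fluor and caspase 3/7 activity by luminescence, each scaled to mock wells per plate, duplicates averaged, then robust z-scored over all plates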
Scale: viability robust z-score: higher = more viable cells than screen typical; caspase robust z-score: higher = more caspase 3/7 activity than screen typical
Active means: 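Hits are knock-downs in viability class RV1/RV2 or caspase class CA1/CA2, excluding ones that killed cells in the no-drug cell-count arm; hits then retested with single siRNAs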
This is a random part of about 18,000 reagents. Over the whole deposit, 450 (2.5%) were called active. 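Single biological run; no consistent viability z cut-off exists, so the class columns, not z-scores, define the calls.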

RAN (RAN, member RAS oncogene family)
- viability hit class: no change
- caspase hit class: no change
- viability robust z-score: -5.82
- caspase robust z-score: 1.02
- activity call: inactive

DNAJA4 (DnaJ heat shock protein family (Hsp40) member A4)
- viability hit class: no change
- caspase hit class: no change
- viability robust z-score: 0.82
- caspase robust z-score: -0.14
- activity call: inactive

MLC1 (modulator of VRAC current 1)
- viability hit class: no change
- caspase hit class: no change
- viability robust z-score: -0.94
- caspase robust z-score: 0.91
- activity call: inactive

MROH5 (maestro heat like repeat family member 5 (gene/pseudogene))
- viability hit class: no change
- caspase hit class: CA1 (caspase activation)
- viability robust z-score: 0.9
- caspase robust z-score: 6.08
- activity call: active

TMEM168 (transmembrane protein 168)
- viability hit class: no change
- caspase hit class: no change
- viability robust z-score: 0.1
- caspase robust z-score: -0.86
- activity call: inactive

HILPDA (hypoxia inducible lipid droplet associated)
- viability hit class: no change
- caspase hit class: no change
- viability robust z-score: 0.3
- caspase robust z-score: 1.24
- activity call: inactive

CA5A (carbonic anhydrase 5A)
- viability hit class: no change
- caspase hit class: no change
- viability robust z-score: -0.78
- caspase robust z-score: -1.39
- activity call: inactive

ARHGAP22 (Rho GTPase activating protein 22)
- viability hit class: no change
- caspase hit class: no change
- viability robust z-score: 1.25
- caspase robust z-score: -0.57
- activity call: inactive

STRBP (spermatid perinuclear RNA binding protein)
- viability hit class: no change
- caspase hit class: no change
- viability robust z-score: -0.4
- caspase robust z-score: -0.14
- activity call: inactive

LRRC31 (leucine rich repeat containing 31)
- viability hit class: no change
- caspase hit class: no change
- viability robust z-score: 2.25
- caspase robust z-score: -0.52
- activity call: inactive

LMLN (leishmanolysin like peptidase)
- viability hit class: no change
- caspase hit class: no change
- viability robust z-score: 0.51
- caspase robust z-score: -0.02
- activity call: inactive

SCD (stearoyl-CoA desaturase)
- viability hit class: no change
- caspase hit class: no change
- viability robust z-score: -0.82
- caspase robust z-score: 0.47
- activity call: inactive

PPP1R14A (protein phosphatase 1 regulatory inhibitor subunit 14A)
- viability hit class: no change
- caspase hit class: no change
- viability robust z-score: 0.22
- caspase robust z-score: -1.08
- activity call: inactive

ROCK1 (Rho associated coiled-coil containing protein kinase 1)
- viability hit class: no change
- caspase hit class: no change
- viability robust z-score: 0.28
- caspase robust z-score: -0.16
- activity call: inactive

PPHLN1 (periphilin 1)
- viability hit class: no change
- caspase hit class: no change
- viability robust z-score: 0.48
- caspase robust z-score: -0.35
- activity call: inactive

LAMP5 (lysosome associated membrane protein 5)
- viability hit class: no change
- caspase hit class: no change
- viability robust z-score: 0.41
- caspase robust z-score: -0.08
- activity call: inactive

PPWD1 (peptidylprolyl isomerase domain and WD repeat containing 1)
- viability hit class: no change
- caspase hit class: no change
- viability robust z-score: 0.67
- caspase robust z-score: 1.02
- activity call: inactive

CDKN2D (cyclin dependent kinase inhibitor 2D)
- viability hit class: no change
- caspase hit class: no change
- viability robust z-score: -0.89
- caspase robust z-score: 0.38
- activity call: inactive

STK35 (serine/threonine kinase 35)
- viability hit class: no change
- caspase hit class: no change
- viability robust z-score: -1.44
- caspase robust z-score: 2.45
- activity call: inactive

OR2AK2 (olfactory receptor family 2 subfamily AK member 2)
- viability hit class: no change
- caspase hit class: no change
- viability robust z-score: 1.09
- caspase robust z-score: -0.7
- activity call: inactive

ATOSA (atos homolog A)
- viability hit class: no change
- caspase hit class: no change
- viability robust z-score: 0.03
- caspase robust z-score: 2.11
- activity call: inactive

3 entries from above in another layout.
target,viability hit class,caspase hit class,viability robust z-score,caspase robust z-score,activity call
"RAN (RAN, member RAS oncogene family)",no change,no change,-5.82,1.02,inactive
DNAJA4 (DnaJ heat shock protein family (Hsp40) member A4),no change,no change,0.82,-0.14,inactive
MLC1 (modulator of VRAC current 1),no change,no change,-0.94,0.91,inactive
